The list shows a part of the results.
molecular target: T1, OsSMF1 (Oryza sativa, UniProt Q6ZLB0 1-436); assay: protein-binding microarray (RPBM); PBS, 2% BSA, 51.3 ng/ul salmon testes DNA, 50 uM zinc acetate, 200 nM TF, 25 C, 1 h; high values mean tight binding; conditions: protein: recombinant; tags: N-terminal polyhistidine and DsRed monomer fusion (pET32a); chain copies: 2; label: CyDye5-dUTP incorporated in the synthesized complementary strand; 3' TTTTT single-stranded linker to array surface; dsDNA, one strand shown
T1 sequence: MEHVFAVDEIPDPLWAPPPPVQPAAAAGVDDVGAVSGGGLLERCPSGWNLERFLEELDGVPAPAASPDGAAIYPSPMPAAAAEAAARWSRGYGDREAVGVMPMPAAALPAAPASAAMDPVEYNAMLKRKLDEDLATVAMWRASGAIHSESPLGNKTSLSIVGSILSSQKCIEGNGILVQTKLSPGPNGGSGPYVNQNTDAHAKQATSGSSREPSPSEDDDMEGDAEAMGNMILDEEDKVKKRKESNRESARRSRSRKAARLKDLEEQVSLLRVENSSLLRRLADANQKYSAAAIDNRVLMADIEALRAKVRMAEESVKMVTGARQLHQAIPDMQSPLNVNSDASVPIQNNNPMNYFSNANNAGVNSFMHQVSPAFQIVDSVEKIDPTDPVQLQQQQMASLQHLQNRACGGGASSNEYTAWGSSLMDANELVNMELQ
Outline: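 Binding signal is defined as the fluorescence intensity of each feature in arbitrary units, read on an Axon 4000B scanner. Transcription factors with N-terminal polyhistidine and DsRed fusions came from E. coli BL21-CodonPlus and were purified on Ni–NTA. They were incubated at 200 nM for 1 h at 25 °C on a custom Agilent array that had been made double-stranded with Cy5-dUTP, with 50 µM zinc acetate present, and the array was washed.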

| Sequence | binding signal |
| --- | --- |
| ATGCACACACATACAACGAAAACCAGAGATCAACAGGTGCCGGAGTCACCTAGTGCAG | 45100 fluorescence intensity (a.u.) |
| TAGCTTGTATGTGTCAGTTGGCACGTGGTTTTAAGGTGGGCGGAGTCACCTAGTGCAG | 4530 fluorescence intensity (a.u.) |
| CTCCAGTCAAAGCAAGTGAAGATGTGTCAGTACTCAGTCACGGAGTCACCTAGTGCAG | 3740 fluorescence intensity (a.u.) |
| GTGCGTGCATGTGCTGCGTCTGGTGTGACGGTGAGAGAGACGGAGTCACCTAGTGCAG | 3750 fluorescence intensity (a.u.) |
| AACCACGTATGCGCCACGTCATCCAAAACCGCCTTCAAAACGGAGTCACCTAGTGCAG | 14400 fluorescence intensity (a.u.) |
| AAATTTAAGAGTTTGAGCCATACGAAACGGCCCTGAAGAACGGAGTCACCTAGTGCAG | 24700 fluorescence intensity (a.u.) |
| ATATAAAATGACGTCAAATATATTCCCTTACTAGATCTTCCGGAGTCACCTAGTGCAG | 10900 fluorescence intensity (a.u.) |
| TGTGTGTGTGGGATGCAGGAACAGGTCGTATCTGATGAACCGGAGTCACCTAGTGCAG | 3260 fluorescence intensity (a.u.) |
| AGGACGAATGATCAAACGTGTGCCCAGCGGTCAATGACGTCGGAGTCACCTAGTGCAG | 3760 fluorescence intensity (a.u.) |
| GGCAGCACCGCAGCAGCCGCCACCCGTGCATCCCTACCCGCGGAGTCACCTAGTGCAG | 3530 fluorescence intensity (a.u.) |
| GGCCGCCTGCAAATTTCGTTCCGTCTGCCACGTCACTTTCCGGAGTCACCTAGTGCAG | 36800 fluorescence intensity (a.u.) |
| AATGCTGTTCGAGCTTGAGCTGGAGCAGTAATAGAGCACCCGGAGTCACCTAGTGCAG | 3250 fluorescence intensity (a.u.) |
| TCCCTCGAGAGGATGTCCTCTCATTGTTTGCATGTCATTTCGGAGTCACCTAGTGCAG | 3220 fluorescence intensity (a.u.) |
| TCACATGCATGAGCACATGACGTGTGGTGTCACAGAATCTCGGAGTCACCTAGTGCAG | 10700 fluorescence intensity (a.u.) |
| GCCACCACATTTAGCGCCCGCCGCCACCGCTGCCGCCGCCCGGAGTCACCTAGTGCAG | 3220 fluorescence intensity (a.u.) |
| CGCGGCGCGCCGGGTCGTTCGTTCGTACAGCACGTACTACCGGAGTCACCTAGTGCAG | 3460 fluorescence intensity (a.u.) |
| CTCCTCGTCTCCGCTCCTCTCTCCACGTGTTGACCAGGCCCGGAGTCACCTAGTGCAG | 6420 fluorescence intensity (a.u.) |
| ACGTCTTTAGTCATGTAGCTACCTATATGCAGCCCCTTCGCGGAGTCACCTAGTGCAG | 3390 fluorescence intensity (a.u.) |
| AGCGCCGAAGTGGTTGGTGCTGAGGTAGCTACCACGTTAGCGGAGTCACCTAGTGCAG | 6040 fluorescence intensity (a.u.) |
| AGTTGTATCACTGATATATGGATCTTAGATGGGGCCTACACGGAGTCACCTAGTGCAG | 5530 fluorescence intensity (a.u.) |
| GCCACCGCCAGTCGCCGCGCGCCTTCGGTTCTCCCCATCGCGGAGTCACCTAGTGCAG | 3430 fluorescence intensity (a.u.) |
| AACCCTAAGACTAGAGGCGGGCTGGAGCGTGGAGGCGGGACGGAGTCACCTAGTGCAG | 3240 fluorescence intensity (a.u.) |
| AGTGAGCTATCTGAATTCTGGATAGGGTTACACAGGCTACCGGAGTCACCTAGTGCAG | 28500 fluorescence intensity (a.u.) |
| TGTGTTCTGCAATGCATAATTGCACCAGTTCTAGTACCTGCGGAGTCACCTAGTGCAG | 45300 fluorescence intensity (a.u.) |
| GCCGAGAGGGCAAAGACCTCCTCGGCCGCACCACCCACAACGGAGTCACCTAGTGCAG | 32000 fluorescence intensity (a.u.) |
| CGCTGGTGAAGTGGTGATGCGCCTAATCGTTTTCTTCGCGCGGAGTCACCTAGTGCAG | 3260 fluorescence intensity (a.u.) |
| GGCTCCGTCTTATCCTAACAACGCCAAGGGGCCACGTATGCGGAGTCACCTAGTGCAG | 7210 fluorescence intensity (a.u.) |

| Sequence | binding signal |
| --- | --- |
| TTGGCAAAGAGGGACTGACGAGAGAGTAGCAATGAGAAGGCGGAGTCACCTAGTGCAG | 25500 fluorescence intensity (a.u.) |
| AATGTTTCAACTAATTTCAAGCAACTATGACTGTGTTTAGCGGAGTCACCTAGTGCAG | 4410 fluorescence intensity (a.u.) |
| CTTGTGATTTGTTCATGACACAACTTGACACGGTTTGGGTCGGAGTCACCTAGTGCAG | 3740 fluorescence intensity (a.u.) |
| CTATAATAATTTATGATGCCCACGTATATAGTGTATTTGGCGGAGTCACCTAGTGCAG | 5690 fluorescence intensity (a.u.) |
| CAATCCGTTGATCGGGGTCGTAGTCCATCGACAGAAATTACGGAGTCACCTAGTGCAG | 41800 fluorescence intensity (a.u.) |
| ATGTGGAGAGGGGAGGGGAATAAGAGGCTGACGTGTGGGCCGGAGTCACCTAGTGCAG | 19200 fluorescence intensity (a.u.) |
| CACAGGTTTTGACCTGTTCCAGTGTCACTGACTTGTGGGCCGGAGTCACCTAGTGCAG | 3690 fluorescence intensity (a.u.) |
| CGGGATCGGCCTCCGAGGGCTCCGACGCGTCGGTAGCGGCCGGAGTCACCTAGTGCAG | 3540 fluorescence intensity (a.u.) |
| ATCAACGGGACAGTGATCCACGTACGGGAAAACCACCCATCGGAGTCACCTAGTGCAG | 3630 fluorescence intensity (a.u.) |
| CTTGGCTGAGTAGAAAAGCAGAACATCTTCTTGTTCCGTGCGGAGTCACCTAGTGCAG | 3170 fluorescence intensity (a.u.) |
| CCCACGTGGGTCCCACGCTGACTCAGCCGCCACGTAGATCCGGAGTCACCTAGTGCAG | 25400 fluorescence intensity (a.u.) |
| CGGTTTTAGCTGACGTGGCGCCTACGTGGCAAAGTTGACCCGGAGTCACCTAGTGCAG | 44700 fluorescence intensity (a.u.) |
| ACAGGCGATATGTCACCCTATTTCTGTTGCTGTTCAACGACGGAGTCACCTAGTGCAG | 3530 fluorescence intensity (a.u.) |
| GCAGTGGTCGTGGGCTCGTGGCTGGAAAGTGGAGGAAACCCGGAGTCACCTAGTGCAG | 6130 fluorescence intensity (a.u.) |
| TGTAGAGGAGAAGGGCTGTGATGGTGTGGCGGCGGCGGCGCGGAGTCACCTAGTGCAG | 3200 fluorescence intensity (a.u.) |
| ATGGAGGCGGCGGTGGCGGTGGAGGTGGAGAGGTGAGGAGCGGAGTCACCTAGTGCAG | 3500 fluorescence intensity (a.u.) |
| CCCTTTCTCAGTCCACCCCATGTGTGGTATTTCCCTGTCTCGGAGTCACCTAGTGCAG | 34100 fluorescence intensity (a.u.) |
| CTTTTCGTTTAATTAACGTGGCAAGGAGTGATATATACGACGGAGTCACCTAGTGCAG | 3870 fluorescence intensity (a.u.) |
| ATCGAGCGCGCTGAGACGGTCCAACCTCCTCGGAGGCGTCCGGAGTCACCTAGTGCAG | 11500 fluorescence intensity (a.u.) |
| AGCCCAAGTCTTACCCACCACAAGCCCAACACACCACACTCGGAGTCACCTAGTGCAG | 3800 fluorescence intensity (a.u.) |
| ACGCCCTTGTACACCCTGCCGAATCCGCCGGTGCCGAGCACGGAGTCACCTAGTGCAG | 3190 fluorescence intensity (a.u.) |
| TGGGCTCCGGCGGAGGGTGGTGCGGTGGCGACTGGCGCGGCGGAGTCACCTAGTGCAG | 3510 fluorescence intensity (a.u.) |
| TGATTCGCATTGCATCCATCATTTTAGGATGTTCTACTAGCGGAGTCACCTAGTGCAG | 3310 fluorescence intensity (a.u.) |
| GATGCACCACTGCTGCGTCGCACGTTCCACCCCATTCCACCGGAGTCACCTAGTGCAG | 3520 fluorescence intensity (a.u.) |
| ATATATATATATATATATATATATATATATATGAGCGGGACGGAGTCACCTAGTGCAG | 3970 fluorescence intensity (a.u.) |
| GATTTTCTCTATTTTATTAGAGCACCACGTGGCAGCTTGGCGGAGTCACCTAGTGCAG | 25800 fluorescence intensity (a.u.) |
| GTTTCTTCGTTTTAACACCACGTTTGCACTCTGCTCCACTCGGAGTCACCTAGTGCAG | 4990 fluorescence intensity (a.u.) |

An excerpt of these results, with bars between the fields.
Sequence | binding signal
TGGGCTCCGGCGGAGGGTGGTGCGGTGGCGACTGGCGCGGCGGAGTCACCTAGTGCAG | 3510 fluorescence intensity (a.u.)
TGATTCGCATTGCATCCATCATTTTAGGATGTTCTACTAGCGGAGTCACCTAGTGCAG | 3310 fluorescence intensity (a.u.)
GATGCACCACTGCTGCGTCGCACGTTCCACCCCATTCCACCGGAGTCACCTAGTGCAG | 3520 fluorescence intensity (a.u.)
ATATATATATATATATATATATATATATATATGAGCGGGACGGAGTCACCTAGTGCAG | 3970 fluorescence intensity (a.u.)
